From patent US20260183363A1, “INHIBITION OF LUTEINIZING HORMONE (LH) ACTION AS TREATMENT OF PERIMENOPAUSAL AND POSTMENOPAUSAL SYMPTOMS AND COMPLICATIONS” (RIGSHOSPITALET, priority 2022, published 2026)
Results are given in words; binding and its absence hold for the method and conditions named. Some results given as binding are weak or reduced against the parent protein; the word gives no strength.

Chains of the proteins cited; added tags and fusions are not shown. Lines headed by an entry give the natural chain unless they say otherwise; changes in a name come on top.
UniProt O09108: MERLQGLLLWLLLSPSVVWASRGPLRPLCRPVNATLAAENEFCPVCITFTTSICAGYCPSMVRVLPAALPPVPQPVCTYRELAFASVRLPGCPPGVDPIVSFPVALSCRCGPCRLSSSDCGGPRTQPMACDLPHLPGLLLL

Target: Mouse LH beta recombinant protein fragment, amino acids S21-L141 of SEQ ID NO: 1 (mouse) (UniProt O09108)
Test: ELISA screening of hybridomas and subclones raised against the recombinant fragment; also IHC and Western blot, no data given

binding: binds
B1: LH targeting antibody (monoclonal mouse antibody against mouse LH beta) (antibody, V domains shown)
VH: QVQLQQSGPELVKPGTSLKLSCKASGYTFTDYVLTWVKQRTGQGLEWIGEIYPGSGSTSYNEKFRGKATLTADKSSNTAYMQLSSLTSEDSAVYFCAHLYYADYDFSYWGQGTLVTVSA
VL: DVLMTQIPLSLVVSLGDQASISCRSSQNIVQSNGNTYLEWYLQKPGQSPKLLIYKVSNRFSGVPDRFSGSGSGTDFTLKISRVEAEDLGVYYCFQGSHVPLTFGAGTKLELKR
